# Assay results: PubChem BioAssay AID901 (National Center for Advancing Translational Sciences (NCATS), 2007)
# This is one part of the list. These are further read-outs of the screen, such as a control signal, another cell line or another target. No call is given for them. Most of these compounds were active or inconclusive in the main read-out, so they are no random draw. The note in brackets gives the kind of curve behind each potency; many fits are weak.
# Assay: qHTS Assay for Identifying the Cell-Membrane Permeable IMPase Inhibitors
# Settings: CHO-M1 cells, IP1 accumulation, HTRF TR-FRET ratio; measured here: donor channel 620 nm AC50
row,SMILES,AC50
1,Cc1ccc(N/C(N)=N/c2nc(CSc3ccc(C)cc3)cc(=O)[nH]2)cc1,"0.0126 µM [falling, full curve, poor fit]"
2,Cc1cc(-c2ccccc2)nnc1NCCN1CCOCC1,"0.00251 µM [falling, full curve, poor fit]"
3,CSCC[C@H](NC(=O)NCCC1=CCCCC1)C(=O)O,"15.8 µM [falling, partial curve]"
4,O=C(O)CC(NS(=O)(=O)c1cccc2nsnc12)c1ccc(F)cc1 (configuration not stated),"3.98 µM [rising, full curve, poor fit]"
5,O=C(CSc1nnc2c(n1)[nH]c1ccccc12)OCc1ccccc1,"31.6 µM [falling, single point]"
6,Cc1[nH]c2ccc(-c3nnc(SCC(=O)c4ccc(F)cc4)o3)cc2c1C,"0.631 µM [rising, full curve, poor fit]"
7,CCc1nnc2c3ccccc3nc(Nc3ccccc3OC)n12,"5.62 µM [rising, single point]"
8,COCCCN1C(=O)C(O)=C(C(=O)c2ccc(C)o2)C1c1cccc(Br)c1 (configuration not stated),"10 µM [rising, partial curve]"
9,COc1cccc(NC(=O)CCSc2ccc3ccccc3n2)c1,"12.6 µM [rising, single point]"
10,Cc1cc(C)cc(OCC(=O)Nc2ccc3c(c2)C(=O)c2ccccc2C3=O)c1,"22.4 µM [rising, single point]"
11,Cc1ccc(Cn2ccc(NC(=O)c3cc(-c4ccc(Br)cc4)on3)n2)cc1,"0.794 µM [falling, full curve]"
12,CC1CN(S(=O)(=O)c2cccc(-c3cn4cccnc4n3)c2)CC(C)O1 (configuration not stated),"10 µM [rising, partial curve, poor fit]"
13,CC(=O)C1=C(C)Nc2ncnn2C1c1ccccc1Cl (configuration not stated),"5.01 µM [rising, partial curve, poor fit]"
14,CSc1ccccc1NC(=O)CSCc1ccc(Br)cc1,"0.1 µM [falling, full curve, poor fit]"
15,C/C(=N\NC(=O)c1c(Br)c(C)nn1C)c1ccc(NC(=O)C(C)Oc2ccc(Cl)cc2C)cc1 (configuration not stated),"0.01 µM [rising, full curve, poor fit]"
16,COc1cc(Cl)c(C)cc1NC(c1ccccc1)c1nnc(-c2ccccc2Cl)o1 (configuration not stated),"0.0501 µM [falling, full curve, poor fit]"
17,CSc1nnc(-c2ccc(S(=O)(=O)N3CCCC3)cc2)n1C,"0.00355 µM [falling, full curve]"
18,COCc1nnc(NS(=O)(=O)c2ccc(C)cc2)s1,"5.62 µM [rising, single point]"
19,Cc1ccc(C(=O)Nc2ccc(S(=O)(=O)N3CCc4ccccc43)cc2)o1,"0.0251 µM [falling, full curve]"
20,COC(=O)CSc1ncnc2c1cnn2Cc1ccccc1,"25.1 µM [rising, partial curve]"
21,CCn1c(=O)cc(SCC(=O)NCCN2CCN(Cc3ccccc3)CC2)c2ccccc21,"10 µM [rising, partial curve]"
22,N#Cc1c(-c2ccco2)nc(SCc2ccc(F)cc2)[nH]c1=O,"3.16 µM [rising, single point]"
23,CCN(CC)CCN1C(=O)C(O)=C(C(=O)c2cc3ccccc3o2)C1c1cccnc1 (configuration not stated),"12.6 µM [rising, partial curve]"

row,SMILES,AC50
1,O=C(COC(=O)c1ccc[nH]c1=O)NCC1CCCO1 (configuration not stated),"0.794 µM [falling, full curve]"
2,CCCCNC(=S)NNC(=O)c1nn(C)cc1Cl,"10 µM [falling, single point]"
3,COc1cccc(CN(C)C(=O)Nc2cccc(C(F)(F)F)c2)c1OC,"0.0631 µM [rising, full curve, poor fit]"
4,COc1ccc(-c2nc(C)ncc2N=Nc2ccccc2)cc1,"31.6 µM [falling, single point]"
5,O=C(Cn1nnc(-c2cccc(C(F)(F)F)c2)n1)N1CCOCC1,"3.16 µM [falling, partial curve]"
6,COc1ccc(C(=O)COC(=O)c2cc(-c3ccccc3)nc3c(C)cccc23)cc1,"35.5 µM [falling, single point]"
7,Cc1ccc(NC(=O)CSc2nc(-c3ccc(F)cc3)cc(C(F)(F)F)c2C#N)cc1,"1.78 µM [rising, partial curve]"
8,O=C(COC(=O)CSc1cccc2cccc(Cl)c12)Nc1ncc(C(F)(F)F)cc1Cl,"10 µM [rising, partial curve]"
9,COc1ccc(-c2c(C#N)c(SCC(=O)Nc3ccccc3C)nc(C)c2C(=O)Nc2ccccc2)cc1OC,"31.6 µM [rising, single point]"
10,COC(=O)Nc1nnc(Cc2ccc(OC)cc2)s1,"0.0631 µM [rising, full curve, poor fit]"
11,CCN(Cc1cc2ccccc2[nH]c1=O)C(=O)C(C)C,"0.0126 µM [rising, full curve, poor fit]"
12,CC(C)Cc1nc2oc3c(NCc4cccnc4)ncnc3c2c2c1CCC2,"0.398 µM [falling, full curve, poor fit]"
13,CCOC(=O)c1sc(NC(=O)c2cncc(Br)c2)nc1C,"2.51 µM [falling, partial curve]"
14,Cc1cnc(C(=O)Nc2cccc3ncccc23)cn1,"0.398 µM [falling, full curve]"
15,OCCN1CCN(c2nc(NCc3ccco3)c3ccccc3n2)CC1,"0.2 µM [rising, single point]"
16,CCOc1cc(C(Nc2cc(C)ccn2)c2ccc3cccnc3c2O)ccc1OC (configuration not stated),"2.51 µM [falling, single point]"
17,Cc1ccc(Cn2nnc3c(=O)n(Cc4ccccc4C)cnc32)cc1,"5.62 µM [rising, single point]"
18,O=C(Cn1cnc2ccccc2c1=O)c1c[nH]c2ccccc12,"6.31 µM [falling, full curve, poor fit]"
19,Cc1noc(NS(=O)(=O)c2ccc(NC(=O)COc3ccccc3)cc2)c1C,"3.55 µM [rising, single point]"
20,CCOC(=O)C1=C(C)NC(C)=C(C(=O)OCC)C1C1=COCCO1,"0.0501 µM [rising, partial curve, poor fit]"
21,COc1cc(NS(=O)(=O)c2ccc(Br)cc2)c(OC)cc1NC(=O)c1ccco1,"3.98 µM [falling, full curve, poor fit]"
22,Clc1ccc(CSc2ncn(-c3ccccc3)n2)cc1,"3.98 µM [rising, partial curve]"
23,Cc1nn(C)c(C)c1/C=N/N=C1\CCC2C3CCc4cc(O)ccc4C3CCC12C (configuration not stated),"1 µM [falling, full curve, poor fit]"

row,SMILES,AC50
1,CCCc1nc(N2CCCC2)c(C#N)c2c1CCCC2,"1 µM [falling, full curve, poor fit]"
2,CCn1c(-c2nn(C)c(C)c2Cl)n[nH]c1=S,"0.2 µM [rising, single point]"
3,CCc1nc2ccccc2n1Cc1ccc(OC)c(OC)c1,"31.6 µM [falling, single point]"
4,O=C(Cn1cc(C(F)(F)F)ccc1=O)N1CCN(S(=O)(=O)c2ccccc2)CC1,"3.98 µM [rising, single point]"
5,O=C(CSc1nc(-c2ccccc2Cl)ns1)NCc1ccco1,"0.0631 µM [rising, full curve, poor fit]"
6,COc1ccc(NC(=O)c2nc[nH]c2C(=O)Nc2ccccc2C)cc1,"0.794 µM [rising, single point]"
7,CC(=O)Nc1cc(C(C)C)c(O)c(C(C)C)c1,"31.6 µM [falling, single point]"
8,COc1ccc(C(=O)NCCn2cc(SCC(=O)N3CCOCC3)c3ccccc32)cc1,"1.58 µM [falling, full curve, poor fit]"
9,COc1ccc(C=O)cc1CSc1nnc(COc2cccc3cccnc23)o1,"1 µM [falling, full curve]"
10,Cc1onc(-c2ccccc2)c1C(=O)NCCN1CCOCC1,"0.0891 µM [falling, full curve]"
11,Cc1cc(NC(=O)CCCC(=O)O)nc(C)n1,"3.16 µM [rising, single point]"
12,COc1ccccc1NC(=O)Cn1c(=O)sc2ccccc21,"12.6 µM [rising, single point]"
13,COc1ccc(-c2nc(=S)[nH][nH]2)cc1,"3.98 µM [falling, full curve]"
14,N/C(=N\OC(=O)c1ccc(Cl)cc1)c1cccnc1,"0.794 µM [falling, full curve, poor fit]"
15,Cc1cccc(C)c1OCC(=O)Nc1cccc(NC(=O)c2ccco2)c1,"0.0631 µM [falling, single point]"
16,CN(C(=O)c1ccc2c(c1)OCO2)C1(C(=O)NC2CCCC2)CCCCC1,"7.94 µM [rising, partial curve, poor fit]"
17,Cc1cc2n(n1)SC(Nc1ccc(F)cc1)N2 (configuration not stated),"22.4 µM [rising, partial curve, poor fit]"
18,Cc1cc(C)cc(OCC(=O)Nc2ccc(N3CCCC3)cc2)c1,"3.16 µM [rising, partial curve, poor fit]"
19,CCCc1cc(Nc2cccc(OC)c2)n2ncnc2n1,"35.5 µM [falling, single point]"
20,COc1ccc(OC)c(-c2cc(C(=O)N3CCCc4ccccc43)no2)c1,"0.398 µM [falling, full curve, poor fit]"
21,C=CCn1c(N)c(S(=O)(=O)c2cccs2)c2nc3ccccc3nc21,"0.0631 µM [falling, full curve, poor fit]"

# 3 entries already listed, ordered by heavy-atom count, high to low:
row,SMILES,AC50
16,CN(C(=O)c1ccc2c(c1)OCO2)C1(C(=O)NC2CCCC2)CCCCC1,"7.94 µM [rising, partial curve, poor fit]"
14,N/C(=N\OC(=O)c1ccc(Cl)cc1)c1cccnc1,"0.794 µM [falling, full curve, poor fit]"
2,CCn1c(-c2nn(C)c(C)c2Cl)n[nH]c1=S,"0.2 µM [rising, single point]"
